What is called inhibition is how much of the control response was suppressed.

The entries are a selection whose mix differs from that of the whole data set. The source made the active and inactive calls.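 The calls were made as follows: active = inhibition above the mean inhibition of all tested compounds plus 3 SD (cut at about 17% in these data); inactive = the rest.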

This experiment addresses Troponin I, cardiac muscle (Homo sapiens) + Troponin T, cardiac muscle (Homo sapiens) + Troponin C, slow skeletal and cardiac muscles (Homo sapiens) (UniProt P19429+P45379+P63316). Put plainly: calcium desensitizers of cardiac thin filaments – biochemical, IANBD-TnC fluorescence, EC70 calcium, primary screen (AID 493244).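 Also: assay run at fixed EC70 calcium of 1.6 mM.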 The note with it: IANBD-labeled cardiac RTF, Ca2+ fluorescence; at 7.15 µM; stronger effect = higher value.
Regarding `CN1[C@@H]2CC[C@H]1CC(OC(=O)C(O)c1ccccc1)C2` (stereo partly specified), the inhibition is active: 17%.

The values are drawn from PubChem BioAssay AID493244 (The Scripps Research Institute Molecular Screening Center, 2011).
